Laboratory results reported in PubChem BioAssay AID1347417 (National Center for Advancing Translational Sciences (NCATS), 2020).
The campaign covered roughly 120,000 compounds. About 5,300 (4.4%) were called active. Only results without a clear call are listed here; the source files them as inconclusive. The call rests on the fitted dose curve; in most records, active means well fitted inhibition curve with a large enough effect; inconclusive means small, poorly fitted or top-dose-only effect; inactive means no such curve, though single readings can be large or run the other way. Some tests of the compounds listed are not included; inactive here does not mean inactive elsewhere.

test: qHTS Primary assay for Inhibitors of Plasmodium falciparum Dd2 growth in vitro; further: nearly all actives have a fitted effect of over 65% in size; conditions: P. falciparum Dd2 growth, SYBR Green, 72 h
From the text: Malaria, a parasitic disease spread to humans through the bite of a Plasmodium infected Anopheles mosquito, continues to be a global health burden affecting millions of people, with an estimated 228 million cases and 405,000 deaths in 2018. Concerns about safety and limitations of current antimalarial treatments strongly emphasize the need to develop new therapeutic options. The scarce number of chemotypes and validated drug targets with efficacy against the liver stage, have hindered development of new antimalarials. To address this, a chemoprophylactic drug discovery effort was conducted through a combined phenotypic high-throughput asexual blood stage and liver stage screen, providing a robust foundation to identify liver-stage active lead chemotypes. Compounds were initially screened against Plasmodium falciparum Dd2 strain parasites using a in vitro SYBRGreen-1 based 72 hr proliferation assay to identify novel chemotypes to advance to liver stage assays. NIH/NCATS Early Translation Branch Assay Submitter (PI): Anton Simeonov Ph.D.
Malaria-vivax Assay Protocol: PROTOCOL TABLE (as described by Inglese et al., 2007) SEQUENCE No. (e.g., 1, 2, 3, etc.); […] […] Compound Management for Quantitative High-Throughput Screening. […]
Potency means the concentration at half of the fitted maximal effect.

| Structure (SMILES) | Potency |
| --- | --- |
| CCCCOc1ccccc1C(=O)NCC1(N(C)C)CCCCC1 | inconclusive: 5.62 µM |
| CCOc1cccc(C(=O)NCC2(N(C)C)CCCCC2)c1 | inconclusive: 10 µM |
| COc1cccc(C(=O)NCC2(N3CCOCC3)CCCCC2)c1 | inconclusive: 8.91 µM |
